From PubChem BioAssay AID893 (National Center for Advancing Translational Sciences (NCATS), 2007)
Screen size: about 75,000 compounds; about 5,700 (7.6%) were called active. Listed are the inconclusive results; actives and inactives stand elsewhere. The call rests on the fitted dose curve; in most records, active means well fitted inhibition curve with a large enough effect; inconclusive means small, poorly fitted or top-dose-only effect; inactive means no such curve, though single readings can be large or run the other way.

Target: 3-hydroxyacyl-CoA dehydrogenase type-2 (Homo sapiens) (UniProt Q99714)
Assay: qHTS Assay for Inhibitors of HSD17B4, hydroxysteroid (17-beta) dehydrogenase 4;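 further: the protocol describes HADH2 (HSD17B10) and not the HSD17B4 of the title; nearly all actives have a fitted effect of over 70% in size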
Conditions: recombinant HSD17B10, NADH fluorescence kinetic
Potency means the concentration at half of the fitted maximal effect.

| SMILES | Potency |
| --- | --- |
| CCN(CCO)CCO.Oc1c(Cl)c(Cl)c(Cl)c(Cl)c1Cl | inconclusive: 7.94 µM |
